Test results: PubChem BioAssay AID248 (DTP/NCI, 2004)
The list is a part of this screen's results and no random one: it gathers tests that were run many times, whatever their T/C, doses with no T/C, and many T/C values between a quarter and a half above the control. Further doses and runs are listed elsewhere. T/C is the treated group as % of the vehicle group. Some doses have a count of surviving animals in place of a T/C: the source files T/C as zero there, which appears to mark a toxic dose or a test without result, not a measured value. Some doses without a T/C left all or most animals alive at the check, yet need not have been tolerated: the source hardly ever lists a survival T/C far under the control, and the zero likely stands for such cases as well. Counts of survivors are from the toxicity check (mostly the fifth day) where no day follows; animals may have died later. Schedule codes are those of the source, taken here to give the interval after Q, in days (D) or hours (H), and the number of doses after X. Some entries were tested several times; the results are listed from low to high. Some schedules carry Z or #; the key to these is not given. For survival time, the PubChem record calls one and a half times the control and up active, and a quarter to a half above the control has no call in these data; cut-offs in other NCI protocols can differ. Marks such as (2×) say how often a value occurs here. Some T/C values carry the count of animals alive at the toxicity check (mostly the fifth day); where none is given, no animal had died by that day.

Test system: L1210 leukemia ip in BDF1 mice, survival T/C
Assay: NCI In Vivo Anticancer Drug Screen. Data for tumor model L1210 Leukemia (intraperitoneal) in B6D2F1 (BDF1) mice
Conditions: T/C endpoint: mean survival time, higher T/C = longer survival
[1] = dose: 200.0 mg/kg/injection, schedule: Q04DX003 (ip), vehicle: saline with Tween-80
[2] = dose: 400.0 mg/kg/injection, schedule: Q04DX003 (ip), vehicle: saline with Tween-80
[3] = dose: 100.0 mg/kg/injection, schedule: Q04DX003 (ip), vehicle: saline
[4] = dose: 200.0 mg/kg/injection, schedule: Q04DX003 (ip), vehicle: saline
[5] = dose: 400.0 mg/kg/injection, schedule: Q04DX003 (ip), vehicle: saline
[6] = dose: 400.0 mg/kg/injection, schedule: Q04DX002 (ip), vehicle: saline with Tween-80
[7] = dose: 400.0 mg/kg/injection, schedule: Q01DX001 (ip), vehicle: saline
[8] = dose: 200.0 mg/kg/injection, schedule: Q01DX009 (ip), vehicle: Klucel (hydroxypropylcellulose) (HPC)
[9] = dose: 200.0 mg/kg/injection, schedule: Q04DX002 (ip), vehicle: saline with Tween-80
[10] = dose: 400.0 mg/kg/injection, schedule: Q04DX003 (ip), vehicle: Klucel (hydroxypropylcellulose) (HPC)
[11] = dose: 100.0 mg/kg/injection, schedule: Q04DX003 (ip), vehicle: saline with Tween-80
[12] = dose: 400.0 mg/kg/injection, schedule: Q01DX009 (ip), vehicle: saline with Tween-80
[13] = dose: 400.0 mg/kg/injection, schedule: Q01DX009 (ip), vehicle: saline
[14] = dose: 100.0 mg/kg/injection, schedule: Q04DX002 (ip), vehicle: saline with Tween-80
[15] = dose: 100.0 mg/kg/injection, schedule: Q01DX009 (ip), vehicle: saline

For CCN1/C(=C\c2ccc3cc(C)ccc3[n+]2CC)[Se]c2ccccc21, the survivor count (dose: 9.5 mg/kg/injection, schedule: Q01DX001 (ip), vehicle: other) was 0 of 6, the survivor count (dose: 19.0 mg/kg/injection, schedule: Q01DX001 (ip), vehicle: other) was 0 of 6 and the survivor count (dose: 38.0 mg/kg/injection, schedule: Q01DX001 (ip), vehicle: other) was 0 of 6.

For CC(C)(N)CNc1ccccc1, the survivor count [1] was 0 of 6 and the survivor count [2] was 0 of 6.

O=C(O)c1cc2ccccc2cc1Sc1ccccc1 was tested, and the survivor count [2] was 2 of 6.

In the case of c1ccc(C[N+]23CCC(CC2)CC3)cc1, the survivor count [3] is reported as 0 of 6, the survivor count [4] is reported as 0 of 6 and the survivor count [5] is reported as 0 of 6.

With CCCCNc1nnc(N)s1 the survivor count [6] was 0 of 3.

For CCCC1(CN2c3ccccc3Sc3ccccc32)CCN(CC)C1 (configuration not stated), the survivor count (dose: 25.0 mg/kg/injection, schedule: Q01DX001 (ip), vehicle: saline) was 2 of 6, the survivor count (dose: 100.0 mg/kg/injection, schedule: Q01DX001 (ip), vehicle: saline) was 3 of 6 and the survivor count (dose: 115.0 mg/kg/injection, schedule: Q04DX003 (ip), vehicle: saline) was 3 of 6. For the same molecule, the survivor count (dose: 170.0 mg/kg/injection, schedule: Q04DX003 (ip), vehicle: saline) was 1 of 6, the survivor count (dose: 200.0 mg/kg/injection, schedule: Q01DX001 (ip), vehicle: saline) was 0 of 6 and the survivor count [7] was 0 of 6.

In the case of O=C(O)CC1C=CCC1 (configuration not stated), the survivor count (dose: 50.0 mg/kg/injection, schedule: Q04DX003 (ip), vehicle: saline) is reported as 0 of 3 and the survivor count [3] is reported as 0 of 3.

With c1ccc2c(c1)CCc1ccccc1CNC2 the survivor count (dose: 100.0 mg/kg/injection, schedule: Q01DX009 (ip), vehicle: Klucel (hydroxypropylcellulose) (HPC)) was 0 of 6, the survivor count (dose: 100.0 mg/kg/injection, schedule: Q04DX002 (ip), vehicle: Klucel (hydroxypropylcellulose) (HPC)) was 0 of 3 and the survivor count [8] was 0 of 6. For the same molecule, the survivor count (dose: 400.0 mg/kg/injection, schedule: Q01DX009 (ip), vehicle: Klucel (hydroxypropylcellulose) (HPC)) was 0 of 6.

In the case of O=C(O)c1cccc(CCl)c1, the survivor count [9] is reported as 3 of 3 and the survivor count [6] is reported as 1 of 3.

For O=C(O)CNC(=O)CCl, the survivor count [8] was 0 of 6 and the survivor count [10] was 1 of 6.

In the case of O=[N+]([O-])c1cccn2cnnc12, the survivor count (dose: 200.0 mg/kg/injection, schedule: Q01DX001 (ip), vehicle: acetone) is reported as 0 of 6 and the survivor count (dose: 400.0 mg/kg/injection, schedule: Q01DX001 (ip), vehicle: acetone) is reported as 0 of 6.

For C[CH2][Ge]([Cl])([CH2]C)[CH2]C, the survivor count [11] was 1 of 6, the survivor count [1] was 0 of 6 and the survivor count [2] was 0 of 6.

With Cc1cccc(C)c1N(COC(C)C)C(=O)CCl the survivor count [12] was 3 of 6.

CN1CCC(CN2c3ccccc3Sc3ccccc32)C1 (configuration not stated) was tested, and the survivor count (dose: 50.0 mg/kg/injection, schedule: Q01DX009 (ip), vehicle: saline) was 4 of 6.

N#CN1CCOCC1 was tested, and the survivor count [13] was 0 of 6 and the survivor count [5] was 0 of 6.

For CCCCCCCOC(CN)C(Cl)(Cl)Cl (configuration not stated), the survivor count (dose: 50.0 mg/kg/injection, schedule: Q01DX009 (ip), vehicle: saline with Tween-80) was 0 of 3 and 0 of 6, the survivor count [14] was 1 of 3, 3 of 6, 4 of 6 and the survivor count [11] was 1 of 6. For the same molecule, the survivor count [9] was 0 of 3 and 0 of 6, the survivor count [1] was 0 of 6 and the survivor count [6] was 0 of 3 and 0 of 6. The survivor count [2] was 1 of 6.

With Cc1[nH]c(=O)nc(Br)c1[N+](=O)[O-] the survivor count [10] was 2 of 6.

In the case of O=C(/C=C/c1ccccc1)NC(=S)Nc1ncccn1, the survivor count (dose: 400.0 mg/kg/injection, schedule: Q04DX003 (ip), vehicle: carboxymethylcellulose (CMC)) is reported as 3 of 6.

For c1ccc2c(c1)C[N+]1(Cc3ccccc3-2)CC12CCCCC2, the survivor count [15] was 0 of 6, the survivor count (dose: 200.0 mg/kg/injection, schedule: Q01DX009 (ip), vehicle: saline) was 0 of 6 and the survivor count [13] was 0 of 6.

For Nc1nc(NCCCc2ccccc2)c(N=Nc2ccccc2)c(=O)[nH]1, the survivor count [14] was 3 of 3, the survivor count [11] was 6 of 6 and the survivor count [12] was 4 of 6 and 3 of 3.

In the case of COc1cc2c3c(c1)C(=O)CCN3CCC2, the survivor count [10] is reported as 0 of 6.

In the case of CCOC(=O)C(N)Cc1ccc(N(CCCl)CCCl)cc1 (configuration not stated), the T/C (dose: 0.25 mg/kg/injection, schedule: Q01DX Z (ip), vehicle: saline) is reported as 130 % of control, the T/C (dose: 0.5 mg/kg/injection, schedule: Q01DX Z (ip), vehicle: saline) is reported as 133 % of control and the T/C (dose: 1.0 mg/kg/injection, schedule: Q01DX Z (ip), vehicle: saline) is reported as 140 % of control. For the same molecule, the T/C (dose: 1.0 mg/kg/injection, schedule: Q01DX Z (oral), vehicle: saline) was 127 % of control, the T/C (dose: 2.0 mg/kg/injection, schedule: Q01DX Z (oral), vehicle: saline) was 130 and 133 % of control [5 of 6 alive] and the T/C (dose: 3.0 mg/kg/injection, schedule: Q01DX Z (ip), vehicle: saline) was 147 % of control. For the same molecule, the T/C (dose: 4.0 mg/kg/injection, schedule: Q01DX Z (ip), vehicle: saline) was 141 % of control, the T/C (dose: 8.0 mg/kg/injection, schedule: Q01DX Z (oral), vehicle: saline) was 138 % of control (2×) and the T/C (dose: 13.5 mg/kg/injection, schedule: Q01DX Z (ip), vehicle: saline) was 135 and 140 % of control. For the same molecule, the survivor count (dose: 30.0 mg/kg/injection, schedule: Q01DX Z (ip), vehicle: saline) was 6 of 6, the survivor count (dose: 32.0 mg/kg/injection, schedule: Q01DX Z (oral), vehicle: saline) was 6 of 6 and the survivor count (dose: 64.0 mg/kg/injection, schedule: Q01DX Z (oral), vehicle: saline) was 2 of 6.

For CN(CCCN)CCCN, the survivor count (dose: 200.0 mg/kg/injection, schedule: Q04DX002 (ip), vehicle: saline) was 1 of 3 and the survivor count (dose: 400.0 mg/kg/injection, schedule: Q04DX002 (ip), vehicle: saline) was 0 of 3.

With C1CCC2[N-]CC3CCCCC3[N-]CC3CCCCC3[N-]CC3CCCCC3[N-]CC2C1.[Ni+2].[O-][Cl+3]([O-])([O-])O (configuration not stated) the survivor count [14] was 0 of 3, the survivor count [9] was 0 of 3 and the survivor count [6] was 0 of 3.

In the case of Cc1cccc(C)c1N=C=S, the survivor count [1] is reported as 5 of 6 and the survivor count [2] is reported as 1 of 6.

With CCN(CC)C(=O)O/N=C(/C)c1ccccc1 the survivor count (dose: 400.0 mg/kg/injection, schedule: Q01DX001 (ip), vehicle: other) was 2 of 4.

With CC1(C)C(N2CCOCC2)CS1(=O)=O (configuration not stated) the survivor count [2] was 1 of 6.

CC(C)N1CN(C(C)C)CN(C(C)C)C1 was tested, and the survivor count [15] was 3 of 6, the survivor count [3] was 6 of 6 and the survivor count [4] was 0 of 6. The survivor count [5] was 0 of 6.

With C=CCNC(=S)Nc1cc(Cl)ccc1OC the survivor count [8] was 6 of 6.

For Cc1nc(-c2ccc(N=Cc3ccc(N(CCOS(C)(=O)=O)CCOS(C)(=O)=O)cc3Cl)cc2)c(C)s1, the T/C (dose: 50.0 mg/kg/injection, schedule: Q01DX009 (ip), vehicle: Klucel (hydroxypropylcellulose) (HPC)) was 135 % of control.

With O=C(O)c1cscn1 the survivor count [12] was 2 of 3 and the survivor count [2] was 2 of 6.

O=C(O)c1cc2ccc3ccccc3c2s1 was tested, and the survivor count [7] was 4 of 6.

In the case of CNCCN(C)CCN(C)Cc1ccc(OC)cc1, the survivor count (dose: 400.0 mg/kg/injection, schedule: Q01DX009 (ip), vehicle: water) is reported as 4 of 6.

With COc1ccccc1N1CCN(CC(O)COc2ccccc2C(C)=O)CC1 (configuration not stated) the survivor count [1] was 3 of 6 and the survivor count [2] was 1 of 6.

In the case of O=C1c2ccccc2C(=O)c2c3c(cc(NCCNCCO)c21)N(CCO)CCN3, the T/C (dose: 12.5 mg/kg/injection, schedule: Q01DX009 (ip), vehicle: DMSO) is reported as 130 % of control, the T/C (dose: 100.0 mg/kg/injection, schedule: Q01DX009 (ip), vehicle: DMSO) is reported as 125 % of control and the survivor count (dose: 400.0 mg/kg/injection, schedule: Q01DX009 (ip), vehicle: DMSO) is reported as 3 of 6.
